The nature of the data set: general procedure: peptide synthesis; PyBOP/DIPEA. The conditions noted are these: conjugation step.

Strings that start with PEPTIDE1 are HELM notation: dots part the residues, brackets hold end groups and non-standard residues.

Turning to “PEPTIDE1{[Pte].[gGlu].[Glu_glucamide].[dE].[Glu_glucamide].[dE].[Glu_glucamide].[dC]}|CHEM1{[SEt-proPBD-Hoechst]}$PEPTIDE1,CHEM1,8:R3-1:R1$$$V2.0”, the conjugation yield is 30%.

For the origin of these results see patent US10624972B2 (priority 2015, dated 2020).
